Read-outs that look alike come from different tables or passages of the source. No constants are given. Whether binding was seen depends on the method and setting. In cells and extracts the contact can be indirect. For some assays here: Binding can be weak; no strength is given. Where a sequence is shown, tags or fusion partners need not be part of it.
B1: LSH10 tagged with a YFP half for BiFC (protein, UniProt Q9S7R3 1-177)
chain: MSSPRERGKSLMESSGSEPPVTPSRYESQKRRDWNTFGQYLKNQRPPVPMSHCSCNHVLDFLRYLDQFGKTKVHVPGCMFYGQPEPPAPCTCPLRQAWGSLDALIGRLRAAYEENGGPPETNPFASGAIRVYLREVRECQAKARGIPYKKKKKKKPTPEMGGGREDSSSSSSSFSFS
B2: LSH10-GFP (protein, UniProt Q9S7R3 1-177)
chain: B1 chain
B3: LSH4 tagged with a YFP half for BiFC (protein, UniProt Q9LW68 1-195)
chain: MDHIIGFMGTTNMSHNTNLMIAAAATTTTTSSSSSSSSGGSGTNQLSRYENQKRRDWNTFGQYLRNHRPPLSLSRCSGAHVLEFLRYLDQFGKTKVHTHLCPFFGHPNPPAPCACPLRQAWGSLDALIGRLRAAFEENGGSPETNPFGARAVRLYLREVRDSQAKARGISYEKKKRKRPPPPLPPAQPAISSSPN
B4: LSH4-GFP (protein, UniProt Q9LW68 1-195)
chain: B3 chain

Chains of the proteins cited; added tags and fusions are not shown. Lines headed by an entry give the natural chain unless they say otherwise; changes in a name come on top.
UniProt Q9XIP2: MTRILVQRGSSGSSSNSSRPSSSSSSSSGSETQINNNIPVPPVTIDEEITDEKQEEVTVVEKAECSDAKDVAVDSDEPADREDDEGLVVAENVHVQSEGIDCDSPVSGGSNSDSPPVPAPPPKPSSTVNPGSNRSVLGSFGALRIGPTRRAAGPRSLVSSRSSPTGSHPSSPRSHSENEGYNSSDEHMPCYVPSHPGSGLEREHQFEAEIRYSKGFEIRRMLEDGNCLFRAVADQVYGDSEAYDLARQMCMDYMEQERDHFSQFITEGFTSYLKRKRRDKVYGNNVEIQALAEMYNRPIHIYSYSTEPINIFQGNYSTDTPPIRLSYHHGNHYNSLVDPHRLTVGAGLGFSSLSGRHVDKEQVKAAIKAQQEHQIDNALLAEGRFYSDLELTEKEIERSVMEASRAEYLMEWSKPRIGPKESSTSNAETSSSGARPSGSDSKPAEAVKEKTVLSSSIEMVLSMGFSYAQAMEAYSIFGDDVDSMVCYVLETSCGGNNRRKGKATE

Assays:
[1] = biological target: OTLD1 tagged with a YFP half for BiFC (Arabidopsis) (UniProt Q9XIP2); test: split reporter
OTLD1-RFP (Arabidopsis) [2] = test: FRET or BRET
OTLD1-RFP (Arabidopsis) [3] = test: FRET or BRET; remark: listed apart in the source

Binder	binding [1]	binding (OTLD1-RFP (Arabidopsis) [2])	binding (OTLD1-RFP (Arabidopsis) [3])
B1	binds	–	–
B2	–	binds	–
B3	no binding	–	–
B4	–	no binding	no binding

Source: article doi:10.1101/2022.07.30.502139
